No constants are given. Whether binding was seen depends on the method and setting. In cells and extracts the contact can be indirect. Some results given as binding are weak or reduced against the parent protein; the word gives no strength.
Target: F-box and WD40 domain protein 7 (FBXW7) (human (endogenous in endometrial cancer cell lines)) (UniProt Q969H0)
Assay: co-IP; EC cells lysed in RIPA buffer; 4 ug primary antibody with 1000 ug total protein, 4°C for 8 h; protein A Sepharose beads, 4°C for 1 h; Western blot

Protein sequences, listed by entry. Tags and fused reporters are not part of them.
UniProt Q969H0: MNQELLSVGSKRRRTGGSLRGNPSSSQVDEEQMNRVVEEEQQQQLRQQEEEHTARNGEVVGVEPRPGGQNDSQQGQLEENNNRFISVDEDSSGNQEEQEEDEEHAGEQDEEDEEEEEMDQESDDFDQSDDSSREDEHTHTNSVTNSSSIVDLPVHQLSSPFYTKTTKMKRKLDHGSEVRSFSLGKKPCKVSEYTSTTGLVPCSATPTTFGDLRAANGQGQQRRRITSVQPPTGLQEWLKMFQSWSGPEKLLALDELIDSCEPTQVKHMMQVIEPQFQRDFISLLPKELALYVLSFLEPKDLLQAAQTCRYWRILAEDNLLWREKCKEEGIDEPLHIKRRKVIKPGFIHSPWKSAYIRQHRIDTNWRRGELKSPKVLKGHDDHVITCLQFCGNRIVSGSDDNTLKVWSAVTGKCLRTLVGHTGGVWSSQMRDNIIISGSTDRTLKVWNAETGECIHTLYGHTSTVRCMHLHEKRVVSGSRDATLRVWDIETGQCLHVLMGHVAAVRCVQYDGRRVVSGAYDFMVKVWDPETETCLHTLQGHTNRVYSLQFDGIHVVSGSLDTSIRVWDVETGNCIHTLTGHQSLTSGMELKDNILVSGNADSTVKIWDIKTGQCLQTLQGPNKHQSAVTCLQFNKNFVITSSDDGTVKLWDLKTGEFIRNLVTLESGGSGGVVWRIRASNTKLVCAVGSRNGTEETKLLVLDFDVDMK

binding: binds
B1: Serine/threonine/tyrosine interacting protein (STYX) (protein, UniProt Q8WUJ0 1-223)
chain: MEDVKLEFPSLPQCKEDAEEWTYPMRREMQEILPGLFLGPYSSAMKSKLPVLQKHGITHIICIRQNIEANFIKPNFQQLFRYLVLDIADNPVENIIRFFPMTKEFIDGSLQMGGKVLVHGNAGISRSAAFVIAYIMETFGMKYRDAFAYVQERRFCINPNAGFVHQLQEYEAIYLAKLTIQMMSPLQIERSLSVHSGTTGSLKRTHEEEDDFGTMQVATAQNG
